No constants are given. Whether binding was seen depends on the method and setting. In cells and extracts the contact can be indirect. Some entries that bind do so weakly or less than the wild type.
Target: Caspase 8 (human (endogenous in LY1 and LY3)) (UniProt Q14790)
Assay: co-IP; lysates (RIPA buffer) of LY1 and LY3 cells transfected with LV-STING; anti-CASP8 mouse antibody or normal mouse IgG overnight at 4 C, protein A/G PLUS-agarose beads 4 hours at 4 C; immunoblot

Protein sequences, listed by entry. Tags and fused reporters are not part of them.
UniProt Q14790: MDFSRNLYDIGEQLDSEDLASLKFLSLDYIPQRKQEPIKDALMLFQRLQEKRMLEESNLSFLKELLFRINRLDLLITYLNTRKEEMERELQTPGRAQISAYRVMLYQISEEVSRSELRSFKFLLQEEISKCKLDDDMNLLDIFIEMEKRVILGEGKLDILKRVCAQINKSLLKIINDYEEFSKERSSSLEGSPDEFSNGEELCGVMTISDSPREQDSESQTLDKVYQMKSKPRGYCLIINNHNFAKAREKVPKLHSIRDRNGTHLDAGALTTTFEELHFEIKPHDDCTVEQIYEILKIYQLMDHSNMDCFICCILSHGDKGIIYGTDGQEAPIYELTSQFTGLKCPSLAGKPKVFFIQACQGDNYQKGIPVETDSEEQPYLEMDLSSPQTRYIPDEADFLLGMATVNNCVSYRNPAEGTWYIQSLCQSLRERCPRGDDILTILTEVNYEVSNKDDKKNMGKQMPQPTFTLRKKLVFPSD
UniProt Q9ULZ3: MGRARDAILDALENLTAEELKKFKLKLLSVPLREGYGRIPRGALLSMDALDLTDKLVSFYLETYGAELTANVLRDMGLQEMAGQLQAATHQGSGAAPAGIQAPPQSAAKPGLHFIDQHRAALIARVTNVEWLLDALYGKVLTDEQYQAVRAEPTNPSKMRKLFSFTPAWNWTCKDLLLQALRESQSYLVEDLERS
UniProt Q9Y572: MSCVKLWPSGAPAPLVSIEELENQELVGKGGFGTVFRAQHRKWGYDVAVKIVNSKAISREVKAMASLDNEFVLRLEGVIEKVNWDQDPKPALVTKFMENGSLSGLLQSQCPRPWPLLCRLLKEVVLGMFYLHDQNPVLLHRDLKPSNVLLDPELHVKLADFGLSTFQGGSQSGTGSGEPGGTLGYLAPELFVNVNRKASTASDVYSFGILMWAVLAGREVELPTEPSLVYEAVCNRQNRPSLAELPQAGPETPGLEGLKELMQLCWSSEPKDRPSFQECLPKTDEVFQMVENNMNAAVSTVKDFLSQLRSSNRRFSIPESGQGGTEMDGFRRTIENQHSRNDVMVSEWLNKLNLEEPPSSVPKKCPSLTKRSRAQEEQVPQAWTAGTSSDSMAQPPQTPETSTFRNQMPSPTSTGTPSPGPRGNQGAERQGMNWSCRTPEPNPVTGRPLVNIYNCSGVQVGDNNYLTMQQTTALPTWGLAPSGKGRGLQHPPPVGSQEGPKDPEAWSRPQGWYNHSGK

binding	Substance
binds	apoptosis-associated speck-like protein containing CARD (from UniProt Q9ULZ3 1-195)
binds	receptor-interacting protein kinase 3 (from UniProt Q9Y572 1-518)

Reference: publication PMC10535696
